Data: article PMC10425210 (The Journal of Clinical Investigation, 2023)
Read-outs that look alike come from different tables or passages of the source. Further values from the same series stand in other lists.

Test system: SHIV-SF162P3
Assay type: in vivo, rhesus macaques

CC(C)(C#Cc1ccc(-c2ccc(Cl)c3c(NS(C)(=O)=O)nn(CC(F)(F)F)c23)c([C@H](Cc2cc(F)cc(F)c2)NC(=O)Cn2nc(C(F)(F)F)c3c2C(F)(F)[C@@H]2C[C@H]32)n1)S(C)(=O)=O [LEN, Lenacapavir]
Plasma SHIV RNA (animal BN33, 20 mg/kg, week 3 post challenge): 62 copies per mL
Plasma SHIV RNA (animal BN33, 20 mg/kg, week 4 post challenge): 62 copies per mL
Plasma SHIV RNA (animal BN33, 20 mg/kg, week 5 post challenge): 62 copies per mL
Plasma SHIV RNA (animal CP67, 75 mg/kg, week 3 post challenge): 62 copies per mL
Plasma SHIV RNA (animal CP67, 75 mg/kg, week 4 post challenge): 62 copies per mL
Plasma SHIV RNA (animal CP67, 75 mg/kg, week 5 post challenge): 62 copies per mL
Plasma SHIV RNA (animal CP67, 75 mg/kg, week 6 post challenge): 62 copies per mL
Plasma SHIV RNA (animal CP67, 75 mg/kg, week 7 post challenge): 62 copies per mL
Plasma SHIV RNA (animal CP67, 75 mg/kg, week 8 post challenge): 62 copies per mL
Plasma SHIV RNA (animal CP67, 75 mg/kg, week 9 post challenge): 62 copies per mL
Plasma SHIV RNA (animal CP67, 75 mg/kg, week 10 post challenge): 62 copies per mL
Plasma SHIV RNA (animal CP67, 75 mg/kg, week 11 post challenge): 62 copies per mL
Plasma SHIV RNA (animal CP67, 75 mg/kg, week 12 post challenge): 62 copies per mL
Plasma SHIV RNA (animal CP67, 75 mg/kg, week 13 post challenge): 62 copies per mL
Plasma SHIV RNA (animal CP67, 75 mg/kg, week 14 post challenge): 62 copies per mL
Plasma SHIV RNA (animal CP67, 75 mg/kg, week 15 post challenge): 62 copies per mL
Plasma SHIV RNA (animal CP67, 75 mg/kg, week 16 post challenge): 62 copies per mL
Plasma SHIV RNA (animal CP67, 75 mg/kg, week 17 post challenge): 62 copies per mL
Plasma SHIV RNA (animal CP67, 75 mg/kg, week 18 post challenge): 62 copies per mL
Plasma SHIV RNA (animal V229, 20 mg/kg, week 0 post challenge): 62 copies per mL
Plasma SHIV RNA (animal V229, 20 mg/kg, week 1 post challenge): 62 copies per mL
Plasma SHIV RNA (animal V229, 20 mg/kg, week 2 post challenge): 58111 copies per mL
Plasma SHIV RNA (animal V229, 20 mg/kg, week 3 post challenge): 299412 copies per mL
Plasma SHIV RNA (animal V229, 20 mg/kg, week 4 post challenge): 1919 copies per mL
Plasma SHIV RNA (animal V229, 20 mg/kg, week 5 post challenge): 1194 copies per mL
Plasma SHIV RNA (animal V417, 75 mg/kg, week 3 post challenge): 62 copies per mL
Plasma SHIV RNA (animal V417, 75 mg/kg, week 4 post challenge): 62 copies per mL
Plasma SHIV RNA (animal V417, 75 mg/kg, week 5 post challenge): 62 copies per mL
Plasma SHIV RNA (animal V417, 75 mg/kg, week 6 post challenge): 62 copies per mL
Plasma SHIV RNA (animal V417, 75 mg/kg, week 7 post challenge): 62 copies per mL
Plasma SHIV RNA (animal V417, 75 mg/kg, week 8 post challenge): 62 copies per mL
Plasma SHIV RNA (animal V417, 75 mg/kg, week 9 post challenge): 62 copies per mL
Plasma SHIV RNA (animal V417, 75 mg/kg, week 10 post challenge): 62 copies per mL
Plasma SHIV RNA (animal V417, 75 mg/kg, week 11 post challenge): 62 copies per mL
Plasma SHIV RNA (animal V417, 75 mg/kg, week 12 post challenge): 62 copies per mL
Plasma SHIV RNA (animal V417, 75 mg/kg, week 13 post challenge): 62 copies per mL
Plasma SHIV RNA (animal V417, 75 mg/kg, week 14 post challenge): 62 copies per mL
Plasma SHIV RNA (animal V417, 75 mg/kg, week 15 post challenge): 62 copies per mL
Plasma SHIV RNA (animal V417, 75 mg/kg, week 16 post challenge): 62 copies per mL
Plasma SHIV RNA (animal V417, 75 mg/kg, week 17 post challenge): 62 copies per mL
Plasma SHIV RNA (animal V417, 75 mg/kg, week 18 post challenge): 62 copies per mL
Plasma SHIV RNA (animal V426, 75 mg/kg, week 4 post challenge): 62 copies per mL
Plasma SHIV RNA (animal V426, 75 mg/kg, week 5 post challenge): 62 copies per mL
Plasma SHIV RNA (animal V426, 75 mg/kg, week 6 post challenge): 62 copies per mL
Plasma SHIV RNA (animal V426, 75 mg/kg, week 7 post challenge): 62 copies per mL
Plasma SHIV RNA (animal V426, 75 mg/kg, week 8 post challenge): 62 copies per mL
Plasma SHIV RNA (animal V426, 75 mg/kg, week 9 post challenge): 62 copies per mL
Plasma SHIV RNA (animal V426, 75 mg/kg, week 10 post challenge): 62 copies per mL
Plasma SHIV RNA (animal V426, 75 mg/kg, week 11 post challenge): 62 copies per mL
Plasma SHIV RNA (animal V426, 75 mg/kg, week 12 post challenge): 62 copies per mL
Plasma SHIV RNA (animal V426, 75 mg/kg, week 13 post challenge): 62 copies per mL
Plasma SHIV RNA (animal V426, 75 mg/kg, week 14 post challenge): 62 copies per mL
Plasma SHIV RNA (animal V426, 75 mg/kg, week 15 post challenge): 62 copies per mL
Plasma SHIV RNA (animal V426, 75 mg/kg, week 16 post challenge): 62 copies per mL
Plasma SHIV RNA (animal V426, 75 mg/kg, week 17 post challenge): 62 copies per mL
Plasma SHIV RNA (animal V426, 75 mg/kg, week 18 post challenge): 62 copies per mL
Plasma SHIV RNA (animal V435, 75 mg/kg, week 3 post challenge): 35193943 copies per mL
Plasma SHIV RNA (animal V435, 75 mg/kg, week 4 post challenge): 3228706 copies per mL
Plasma SHIV RNA (animal V435, 75 mg/kg, week 5 post challenge): 807911 copies per mL
